PubChem BioAssay AID1053208 – Peter MacCallum Cancer Centre – 2014
Shown is a random part of about 17,000 reagents tested. Of all reagents, 788 (4.7%) were called active. 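Calls rest on z-score classes alone; an extra cut-off of viability at most 70% of control was not applied to them.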 Further read-outs or replicates are left out here.

- Assay: 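Synthetic lethal interactions between gene loss and doxorubicin in osteosarcoma cells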 (primary screen)
- Cell system: mouse osteosarcoma cells, early-passage culture from an engineered mouse model of fibroblastic bone tumour
- Reagents: siRNA pool against mouse genes, 40 nM
- Timing: about 120 h (48 h before drug, then 72 h with drug)
- Challenge: doxorubicin 100 nM for 72 h, roughly 30-40% inhibitory dose
- Detection: 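Luminescent ATP signal taken as viability with or without 100 nM doxorubicin for 72 h; mean of two wells set against non-targeting siRNA and turned into robust z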
- Reading the numbers: viability z-score with doxorubicin: higher = more viable cells under doxorubicin; viability z-score without drug: higher = more viable cells with knock-down alone
- Hit rule: 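Called active if knock-down leaves viability unchanged without drug (z within -2 to 2) but lowers it with doxorubicin (z at or under -2)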

With knock-down of C1ql1 (complement component 1, q subcomponent-like 1), the screen gave combined z-score class no change with or without drug; viability z-score with doxorubicin 1.12; viability z-score without drug -0.84; inactive.
Silencing of Baalc (brain and acute leukemia, cytoplasmic) resulted in: combined z-score class no change with or without drug; viability z-score with doxorubicin -0.11; viability z-score without drug -1.85; inactive.
Against Il7r (interleukin 7 receptor) the deposit lists combined z-score class no change with or without drug; viability z-score with doxorubicin 0; viability z-score without drug -0.51; inactive.
Olfm1 (olfactomedin 1) showed combined z-score class no change with or without drug; viability z-score with doxorubicin 0.67; viability z-score without drug -1.52; inactive.
Silencing of Wdr4 (WD repeat domain 4) resulted in: combined z-score class no change with or without drug; viability z-score with doxorubicin -1.24; viability z-score without drug 1.18; inactive.
Knock-down of Flywch1 (FLYWCH-type zinc finger 1) resulted in: combined z-score class no change with or without drug; viability z-score with doxorubicin -0.45; viability z-score without drug 0.67; inactive.
After knock-down of Brip1os, the record shows combined z-score class no change with or without drug; viability z-score with doxorubicin -0.45; viability z-score without drug 0.84; inactive.
Knock-down of Hcrtr1 (hypocretin (orexin) receptor 1) came out at: combined z-score class no change with or without drug; viability z-score with doxorubicin -0.9; viability z-score without drug -0.84; inactive.
After knock-down of Fcer1a (Fc receptor, IgE, high affinity I, alpha polypeptide), the screen gave combined z-score class no change with or without drug; viability z-score with doxorubicin -0.9; viability z-score without drug -0.34; inactive.
With knock-down of Fbp1 (fructose bisphosphatase 1), the screen gave combined z-score class no change with or without drug; viability z-score with doxorubicin 0.45; viability z-score without drug -0.17; inactive.
Urgcp (upregulator of cell proliferation) gave combined z-score class no change with or without drug; viability z-score with doxorubicin 0; viability z-score without drug 0.67; inactive.

4 of these entries, reformatted.
Flywch1 (FLYWCH-type zinc finger 1)
- combined z-score class: no change with or without drug
- viability z-score with doxorubicin: -0.45
- viability z-score without drug: 0.67
- call: inactive

Brip1os
- combined z-score class: no change with or without drug
- viability z-score with doxorubicin: -0.45
- viability z-score without drug: 0.84
- call: inactive

Hcrtr1 (hypocretin (orexin) receptor 1)
- combined z-score class: no change with or without drug
- viability z-score with doxorubicin: -0.9
- viability z-score without drug: -0.84
- call: inactive

Fcer1a (Fc receptor, IgE, high affinity I, alpha polypeptide)
- combined z-score class: no change with or without drug
- viability z-score with doxorubicin: -0.9
- viability z-score without drug: -0.34
- call: inactive

Next records follow.
Knock-down of Or52i2 (olfactory receptor family 52 subfamily J member 2) resulted in: combined z-score class no change with or without drug; viability z-score with doxorubicin -0.22; viability z-score without drug 0; inactive.
Against Dppa4 (developmental pluripotency associated 4), the entry reads combined z-score class no change with or without drug; viability z-score with doxorubicin 0; viability z-score without drug 0.17; inactive.
With knock-down of Gm5105 (predicted gene 5105) the results were combined z-score class no change with or without drug; viability z-score with doxorubicin 1.57; viability z-score without drug 0.84; inactive.
Or52ae9 (olfactory receptor family 52 subfamily AE member 9) scored combined z-score class no change with or without drug; viability z-score with doxorubicin -1.57; viability z-score without drug -1.18; inactive.
After knock-down of Med23 (mediator complex subunit 23), the screen gave combined z-score class no change with or without drug; viability z-score with doxorubicin -1.12; viability z-score without drug -0.17; inactive.
With knock-down of Fancg (Fanconi anemia, complementation group G), the record shows combined z-score class no change with or without drug; viability z-score with doxorubicin 0.45; viability z-score without drug 1.35; inactive.
Camta2 (calmodulin binding transcription activator 2) gave combined z-score class no change with or without drug; viability z-score with doxorubicin 0.45; viability z-score without drug -0.17; inactive.
Copa (coatomer protein complex subunit alpha) scored combined z-score class low cell count with and without drug; viability z-score with doxorubicin -6.74; viability z-score without drug -5.9; inactive.
Pimreg (PICALM interacting mitotic regulator) showed combined z-score class no change with or without drug; viability z-score with doxorubicin -0.67; viability z-score without drug 0.84; inactive.
Knock-down of 8030498B09Rik (RIKEN cDNA 8030498B09 gene) resulted in: combined z-score class no change with or without drug; viability z-score with doxorubicin -1.12; viability z-score without drug -0.17; inactive.
With knock-down of Dicer1 (dicer 1, ribonuclease type III), the screen gave combined z-score class no change with or without drug; viability z-score with doxorubicin 0.9; viability z-score without drug 0.51; inactive.
Depletion of Cox14 (cytochrome c oxidase assembly protein 14) resulted in: combined z-score class no change with or without drug; viability z-score with doxorubicin -0.56; viability z-score without drug 0.51; inactive.
After knock-down of Hnrnpd (heterogeneous nuclear ribonucleoprotein D) the results were combined z-score class no change with or without drug; viability z-score with doxorubicin 0.22; viability z-score without drug -1.69; inactive.
Eci3 (enoyl-Coenzyme A delta isomerase 3) scored combined z-score class high cell count without drug only; viability z-score with doxorubicin 1.35; viability z-score without drug 2.19; inactive.
Silencing of Cdc20 (cell division cycle 20) gave: combined z-score class low cell count with doxorubicin only; viability z-score with doxorubicin -2.25; viability z-score without drug -0.17; active.
Prph (peripherin) scored combined z-score class no change with or without drug; viability z-score with doxorubicin -0.11; viability z-score without drug -0.17; inactive.
Against Rgs5 (regulator of G-protein signaling 5) the deposit lists combined z-score class no change with or without drug; viability z-score with doxorubicin -0.9; viability z-score without drug -0.51; inactive.
